For 1 molecule, binding results are on record in PMC3225368, “A Conformational Switch in the Active Site of BT_2972, a Methyltransferase from an Antibiotic Resistant Pathogen B. thetaiotaomicron” (PLoS ONE, 2011).

Results are given in words; binding and its absence hold for the method and conditions named.

The assay addresses BT_2972, AdoMet-dependent methyltransferase from Bacteroides thetaiotaomicron VPI-5482 (Bacteroides thetaiotaomicron VPI-5482) (UniProt Q8A3I2). Put plainly: SEC + other: dynamic light scattering; gel filtration in Tris-HCl (pH 8.0), 200 mM NaCl; dynamic light scattering of the purified protein; both purified. A general note: In gel filtration, larger molecules generally elute earlier.

B1: BT_2972, AdoMet-dependent methyltransferase from Bacteroides thetaiotaomicron VPI-5482 (enzyme, UniProt Q8A3I2 1-257)
chain: MSNNNTSIHDFDFSFICNYFKLLKRQGPGSPEATRKAVSFINELTDDAKIADIGCGTGGQTLFLADYVKGQITGIDLFPDFIEIFNENAVKANCADRVKGITGSMDNLPFQNEELDLIWSEGAIYNIGFERGMNEWSKYLKKGGFIAVSEASWFTSERPAEIEDFWMDAYPEISVIPTCIDKMERAGYTPTAHFILPENCWTEHYFAPQDEVRETFMKEHAGNKTAMDFMKGQQYERSLYSKYKDYYGYVFYIGQKR
Regarding B1, the binding entry is on record as “no binding”.
